Data source: PubChem BioAssay AID1259405 (NCATS, 2018)
The whole screen tested about 50,000 reagents; below is an unselected part. About 4,000 of them (8%) were called active. 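Mouse siRNA library applied to hamster cells; one well for each siRNA.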 The numbers tell different reagents against one gene apart.

Purpose: 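Mouse-designed siRNAs used to find CHO productivity engineering targets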 (primary screen)
System: Chinese hamster CHO-K1 ovary cells with stable secreted eGFP expression
Reagents: single siRNA against mouse genes, 0.8 pmol siRNA per well (2 µl of 400 nM stock)
Timing: 3 days
Detection: 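Percent of the per-plate non-targeting control median for intracellular GFP per well by laser scanning cytometry and for cell viability by ATP luminescence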
Scale: GFP, % of control: higher = more GFP per well, higher productivity; viability (ATP), % of control: higher = more viable cells (more ATP)
Hit rule: 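Called active when intracellular GFP, relative to negative control, is at or above 120%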

| gene | reagent no. | GFP, % of control | viability (ATP), % of control | activity call |
| --- | --- | --- | --- | --- |
| Acot1 (acyl-CoA thioesterase 1) | 1 | 102 | 61.4 | inactive |
| Acot1 (acyl-CoA thioesterase 1) | 2 | 121 | 71.1 | active |
| Acot1 (acyl-CoA thioesterase 1) | 3 | 125 | 109 | active |
| Or5w14 (olfactory receptor family 5 subfamily W member 14) | 1 | 82.9 | 75.5 | inactive |
| Or5w14 (olfactory receptor family 5 subfamily W member 14) | 2 | 81.4 | 63.3 | inactive |
| Or5w14 (olfactory receptor family 5 subfamily W member 14) | 3 | 59.1 | 26.9 | inactive |
| A730013G03Rik (RIKEN cDNA A730013G03 gene) | 1 | 68.3 | 65.7 | inactive |
| A730013G03Rik (RIKEN cDNA A730013G03 gene) | 2 | 71 | 42.1 | inactive |
| A730013G03Rik (RIKEN cDNA A730013G03 gene) | 3 | 71 | 87.1 | inactive |
| Iftap (intraflagellar transport associated protein) | 1 | 109 | 79.9 | inactive |
| Iftap (intraflagellar transport associated protein) | 2 | 54.6 | 55.6 | inactive |
| Iftap (intraflagellar transport associated protein) | 3 | 118 | 99.4 | inactive |
| Slc7a14 | 1 | 41.6 | 21 | inactive |
| Slc7a14 | 2 | 312 | 101 | active |
| Slc7a14 | 3 | 46.5 | 49.5 | inactive |
| Dock2 (dedicator of cyto-kinesis 2) | 1 | 132 | 118 | active |
| Dock2 (dedicator of cyto-kinesis 2) | 2 | 128 | 112 | active |
| Dock2 (dedicator of cyto-kinesis 2) | 3 | 82.1 | 74.4 | inactive |
| Smarcal1 (SNF2 related chromatin remodeling ATPase like 1) | 1 | 57.8 | 54.5 | inactive |
| Smarcal1 (SNF2 related chromatin remodeling ATPase like 1) | 2 | 156 | 80.4 | active |
| Smarcal1 (SNF2 related chromatin remodeling ATPase like 1) | 3 | 85.7 | 44.1 | inactive |
| Ugt2b35 (UDP glucuronosyltransferase 2 family, polypeptide B35) | 1 | 101 | 126 | inactive |
| Ugt2b35 (UDP glucuronosyltransferase 2 family, polypeptide B35) | 2 | 69.8 | 92.7 | inactive |
| Ugt2b35 (UDP glucuronosyltransferase 2 family, polypeptide B35) | 3 | 38.4 | 53 | inactive |
| Spata20 (spermatogenesis associated 20) | 1 | 43.3 | 49.1 | inactive |
| Spata20 (spermatogenesis associated 20) | 2 | 38.2 | 43.7 | inactive |
| Spata20 (spermatogenesis associated 20) | 3 | 46.8 | 64.2 | inactive |
| Loxl4 (lysyl oxidase-like 4) | 1 | 90.1 | 87 | inactive |
| Loxl4 (lysyl oxidase-like 4) | 2 | 99 | 61.9 | inactive |
| Loxl4 (lysyl oxidase-like 4) | 3 | 62.3 | 63.4 | inactive |
| Nav1 (neuron navigator 1) | 1 | 51.4 | 70.4 | inactive |
| Nav1 (neuron navigator 1) | 2 | 55.2 | 78.8 | inactive |
| Nav1 (neuron navigator 1) | 3 | 62.2 | 41.4 | inactive |
| Ltb4r1 (leukotriene B4 receptor 1) | 1 | 63.7 | 85.6 | inactive |
| Ltb4r1 (leukotriene B4 receptor 1) | 2 | 69.4 | 73.3 | inactive |
| Ltb4r1 (leukotriene B4 receptor 1) | 3 | 71.4 | 70.9 | inactive |
| Ralyl (RALY RNA binding protein-like) | 1 | 96.6 | 104 | inactive |
| Ralyl (RALY RNA binding protein-like) | 2 | 86.5 | 70.3 | inactive |
| Ralyl (RALY RNA binding protein-like) | 3 | 60.4 | 71.3 | inactive |
| Myh4 (myosin, heavy polypeptide 4, skeletal muscle) | 1 | 67.3 | 98.2 | inactive |
| Myh4 (myosin, heavy polypeptide 4, skeletal muscle) | 2 | 87.9 | 105 | inactive |

Ordered by “viability (ATP), % of control” (high to low): some entries from above.
| gene | reagent no. | GFP, % of control | viability (ATP), % of control | activity call |
| --- | --- | --- | --- | --- |
| Loxl4 (lysyl oxidase-like 4) | 1 | 90.1 | 87 | inactive |
| Nav1 (neuron navigator 1) | 1 | 51.4 | 70.4 | inactive |
| Spata20 (spermatogenesis associated 20) | 3 | 46.8 | 64.2 | inactive |
| Loxl4 (lysyl oxidase-like 4) | 3 | 62.3 | 63.4 | inactive |
| Loxl4 (lysyl oxidase-like 4) | 2 | 99 | 61.9 | inactive |
| Spata20 (spermatogenesis associated 20) | 2 | 38.2 | 43.7 | inactive |

Further results follow.
| gene | reagent no. | GFP, % of control | viability (ATP), % of control | activity call |
| --- | --- | --- | --- | --- |
| Snap29 (synaptosomal-associated protein 29) | 1 | 107 | 52.8 | inactive |
| Snap29 (synaptosomal-associated protein 29) | 2 | 45.3 | 56.3 | inactive |
| Snap29 (synaptosomal-associated protein 29) | 3 | 25.7 | 32.1 | inactive |
| Ms4a4b (membrane-spanning 4-domains, subfamily A, member 4B) | 1 | 78.8 | 52.5 | inactive |
| Ms4a4b (membrane-spanning 4-domains, subfamily A, member 4B) | 2 | 107 | 89.9 | inactive |
| Ms4a4b (membrane-spanning 4-domains, subfamily A, member 4B) | 3 | 73.7 | 60.3 | inactive |
| Hdgfl2 (HDGF like 2) | 1 | 38.8 | 48.2 | inactive |
| Hdgfl2 (HDGF like 2) | 2 | 67.7 | 39.2 | inactive |
| Hdgfl2 (HDGF like 2) | 3 | 81.4 | 65.9 | inactive |
| Cyp2c65 (cytochrome P450, family 2, subfamily c, polypeptide 65) | 1 | 133 | 59.4 | active |
| Cyp2c65 (cytochrome P450, family 2, subfamily c, polypeptide 65) | 2 | 52.7 | 70.9 | inactive |
| Cyp2c65 (cytochrome P450, family 2, subfamily c, polypeptide 65) | 3 | 65.8 | 83.4 | inactive |
| Bap1 (Brca1 associated protein 1) | 1 | 81.3 | 91.1 | inactive |
| Bap1 (Brca1 associated protein 1) | 2 | 40.3 | 31.5 | inactive |
| Bap1 (Brca1 associated protein 1) | 3 | 60.6 | 68 | inactive |
| Tor1aip1 (torsin A interacting protein 1) | 1 | 83.6 | 92.7 | inactive |
| Tor1aip1 (torsin A interacting protein 1) | 2 | 81.7 | 102 | inactive |
| Tor1aip1 (torsin A interacting protein 1) | 3 | 73 | 67 | inactive |
| Cxxc1 (CXXC finger protein 1) | 1 | 49.8 | 59.9 | inactive |
| Cxxc1 (CXXC finger protein 1) | 2 | 70.7 | 71.5 | inactive |
| Cxxc1 (CXXC finger protein 1) | 3 | 52.6 | 63.5 | inactive |
| Atoh7 (atonal bHLH transcription factor 7) | 1 | 78.6 | 60.7 | inactive |
| Atoh7 (atonal bHLH transcription factor 7) | 2 | 36.6 | 41.9 | inactive |
| Atoh7 (atonal bHLH transcription factor 7) | 3 | 59.2 | 67.5 | inactive |
| Scrg1 (scrapie responsive gene 1) | 1 | 78.7 | 60 | inactive |
| Scrg1 (scrapie responsive gene 1) | 2 | 52.5 | 33.2 | inactive |
| Scrg1 (scrapie responsive gene 1) | 3 | 99.1 | 97.7 | inactive |
| Znrf4 (zinc and ring finger 4) | 1 | 58.7 | 79.3 | inactive |
| Znrf4 (zinc and ring finger 4) | 2 | 85.3 | 91.8 | inactive |
| Znrf4 (zinc and ring finger 4) | 3 | 97.1 | 104 | inactive |
| Crhbp (corticotropin releasing hormone binding protein) | 1 | 74.3 | 54.1 | inactive |
| Crhbp (corticotropin releasing hormone binding protein) | 2 | 75.2 | 77.8 | inactive |
| Chkb (choline kinase beta) | 1 | 89.3 | 53.7 | inactive |
| Alcam (activated leukocyte cell adhesion molecule) | 1 | 108 | 122 | inactive |
| Alcam (activated leukocyte cell adhesion molecule) | 2 | 62.7 | 60.6 | inactive |
| Alcam (activated leukocyte cell adhesion molecule) | 3 | 64 | 86 | inactive |
| Tmbim7 (transmembrane BAX inhibitor motif containing 7) | 1 | 29.3 | 108 | inactive |
| Tmbim7 (transmembrane BAX inhibitor motif containing 7) | 2 | 76.7 | 72.1 | inactive |
| Tmbim7 (transmembrane BAX inhibitor motif containing 7) | 3 | 60.5 | 63.1 | inactive |
| Gm5444 (predicted gene 5444) | 1 | 77.6 | 80.5 | inactive |
| Gm5444 (predicted gene 5444) | 2 | 86.3 | 49.3 | inactive |
| Gm5444 (predicted gene 5444) | 3 | 112 | 75.4 | inactive |
| Uba1 (ubiquitin-like modifier activating enzyme 1) | 1 | 69 | 75.9 | inactive |
| Uba1 (ubiquitin-like modifier activating enzyme 1) | 2 | 92.8 | 63.9 | inactive |
| Uba1 (ubiquitin-like modifier activating enzyme 1) | 3 | 67.8 | 59.4 | inactive |
| Or4b13 (olfactory receptor family 4 subfamily B member 13) | 1 | 124 | 77.3 | active |
| Or4b13 (olfactory receptor family 4 subfamily B member 13) | 2 | 57.7 | 45.7 | inactive |
| Or4b13 (olfactory receptor family 4 subfamily B member 13) | 3 | 61.9 | 91.9 | inactive |
| Krt23 (keratin 23) | 1 | 89.2 | 78.9 | inactive |
| Krt23 (keratin 23) | 2 | 70.1 | 55 | inactive |
| Gpx2 (glutathione peroxidase 2) | 1 | 116 | 89.9 | inactive |
| Gpx2 (glutathione peroxidase 2) | 2 | 50.5 | 52.6 | inactive |
| Gpx2 (glutathione peroxidase 2) | 3 | 88.8 | 76.8 | inactive |
| Gab2 (growth factor receptor bound protein 2-associated protein 2) | 1 | 73.3 | 56.9 | inactive |
| Gab2 (growth factor receptor bound protein 2-associated protein 2) | 2 | 75.4 | 98.8 | inactive |
| Gab2 (growth factor receptor bound protein 2-associated protein 2) | 3 | 63 | 87 | inactive |
| Hmga2 (high mobility group AT-hook 2) | 1 | 73.9 | 62.9 | inactive |
| Hmga2 (high mobility group AT-hook 2) | 2 | 54.3 | 61.8 | inactive |
| Hmga2 (high mobility group AT-hook 2) | 3 | 73.1 | 55.6 | inactive |
| Eipr1 (EARP complex and GARP complex interacting protein 1) | 1 | 75.2 | 79.3 | inactive |
| Eipr1 (EARP complex and GARP complex interacting protein 1) | 2 | 76.5 | 77.3 | inactive |
| Eipr1 (EARP complex and GARP complex interacting protein 1) | 3 | 70 | 86.1 | inactive |
| 1810030O07Rik (RIKEN cDNA 1810030O07 gene) | 1 | 36.5 | 42 | inactive |
| 1810030O07Rik (RIKEN cDNA 1810030O07 gene) | 2 | 115 | 81.2 | inactive |
| 1810030O07Rik (RIKEN cDNA 1810030O07 gene) | 3 | 63.9 | 78.9 | inactive |
| Pax8 (paired box 8) | 1 | 99.8 | 83.1 | inactive |
| Pax8 (paired box 8) | 2 | 57.6 | 75.7 | inactive |
